{"source": "patent US20040097521A1", "about": "“Clinical treatment” (priority 2000, published 2004)", "key": {"[1]": {"tested_on": "primary normal human epidermal keratinocytes (NHEK)", "test": "Effects of NAC or di-NAC on primary normal human epidermal keratinocytes (NHEK) in culture", "assay_type": "cell-based", "excerpt": "Primary normal human epidermal keratinocytes (NHEK) obtained from Clonetics Inc. (San Diego, Calif., U.S.A.) were cultivated in the medium provided by the supplier. These cells have a limited life-span of about 15 days in culture and undergo a normal differentiation process of epidermal keratinocytes with a final enucleation and exfoliation. After inoculation the cells acquire a polygonal morphology cell-cell adhesions. The cytoskeleton morphology is quite organized, mainly at the cell borders.\nNHEK cells were treated with various millimolar concentrations of NAC or di-NAC, ranging from 1 to 10 mM. The substances were added to the culture medium 24 hours after inoculation. After 3 days of culture in the presence of 2 mM of NAC or di-NAC the cells were analysed for the following marker parameters: […]"}, "[2]": {"tested_on": "localized psoriatic plaques", "test": "Local treatment of psoriatic plaques in volunteers with NAC or di-NAC cream", "assay_type": "in vivo, human", "conditions": "base-cream 10-20 weight %, applied every night, five volunteers", "excerpt": "Five informed volunteers displaying localized psoriatic plaques were locally treated with a base-cream containing 10-20 weight % of NAC or di-NAC. The cream had been applied every night for variable periods—from weeks to a few months—with or without occlusive bandage. The skin of the patient was normally washed between each daily treatment. No other drugs were contemporarily used."}}, "note": "Some results were stated once for a whole list of compounds, not compound by compound.", "data": [{"smiles": "CC(=O)N[C@@H](CS)C(=O)O", "note": "[NAC, N-acetyl-L-cysteine]", "values": [{"measurement": "faster differentiation", "setting": "[1]", "value": "3-4 fold"}, {"measurement": "number of treatments until rapid improvement (decreased scales, skin smoothing)", "setting": "[2]", "value": "1-2 treatments"}]}, {"smiles": "CC(=O)N[C@@H](CSSC[C@H](NC(C)=O)C(=O)O)C(=O)O", "note": "[di-NAC, N,N′-diacetyl-L-cystine]", "values": [{"measurement": "faster differentiation", "setting": "[1]", "value": "3-4 fold"}, {"measurement": "number of treatments until rapid improvement (decreased scales, skin smoothing)", "setting": "[2]", "value": "1-2 treatments"}]}]}
